Measured values reported in patent publication US7601737B2, “Isotopically substituted proton pump inhibitors” (priority 2005, dated 2009).
Some of these results come from one statement about several compounds together.

Tested on: human cryopreserved hepatocytes
Settings: pooled human cryopreserved hepatocytes, M2 formation

Q: For `[2H]C([2H])([2H])Oc1ccnc(C[S@+]([O-])c2nc3cc(OC(F)F)ccc3[nH]2)c1OC` [Example 5, Sodium (S)-{[5-(difluoromethoxy)]-2-[(3-methoxy-4-trideuteriomethoxy-2-pyridinyl)methylsulphinyl]-1H-benzimidazolide} hydrate], which “Intrinsic clearance, reduction compared to non-deuterated counterpart” value is on record?
A: at least 4.7 fold

Q: Which “Intrinsic clearance, reduction compared to non-deuterated counterpart” value does the source give for `[2H]C([2H])([2H])Oc1ccnc(C[S@@+]([O-])c2nc3cc(OC(F)F)ccc3[nH]2)c1OC.[Na]` [Example 37, (R)-5-Difluoromethoxy-2-[(3-methoxy-4-trideuteriomethoxy-2-pyridinyl)methylsulfinyl]-1H-benzimidazole sodium salt] here?
A: at least 4.7 fold

Q: Which “Intrinsic clearance, reduction compared to non-deuterated counterpart” value does the source give for `[2H]C([2H])([2H])Oc1ccnc(C[S@+]([O-])c2nc3cc(OC(F)F)ccc3[nH]2)c1OC.[Na]` [Example 36, (S)-5-Difluoromethoxy-2-[(3-methoxy-4-trideuteriomethoxy-2-pyridinyl)methylsulfinyl]-1H-benzimidazole sodium salt] here?
A: at least 4.7 fold
